The whole screen tested about 220,000 compounds, of which about 770 (0.35%) were called active. Inconclusive results, whose numbers are uncertain, are shown with a selection of clear calls. No stated cut-off is given here; in the data, active means binding response below about 49% or above about 150%; inconclusive means no clear call, values can overlap the other calls; inactive means in between.
molecular target: Guanine nucleotide-binding protein G(o) subunit alpha (Homo sapiens) (UniProt P09471); assay: RGS7-Galphao binding modulators, primary screen, biochemical, multiplexed bead flow cytometry (AID 1439); conditions: at 10 µM, actives lie on both sides;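 further: fluorescent Galphao held in activated GDP-AlF4 state binding bead-coupled RGS7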

Sequences of proteins named here, by UniProt entry; tags and fusion partners are left off.
UniProt P09471, whole entry, looked up: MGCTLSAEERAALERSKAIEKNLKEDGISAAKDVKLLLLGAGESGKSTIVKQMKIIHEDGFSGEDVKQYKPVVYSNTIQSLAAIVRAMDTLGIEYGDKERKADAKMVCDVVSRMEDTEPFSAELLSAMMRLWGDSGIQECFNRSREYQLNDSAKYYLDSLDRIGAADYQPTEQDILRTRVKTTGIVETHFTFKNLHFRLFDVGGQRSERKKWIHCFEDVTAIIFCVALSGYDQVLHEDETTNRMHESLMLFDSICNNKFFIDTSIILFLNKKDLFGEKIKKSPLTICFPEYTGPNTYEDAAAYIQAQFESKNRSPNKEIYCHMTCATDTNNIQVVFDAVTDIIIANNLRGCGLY

SMILES | binding response (% of control)
CCc1nc2c(sc3nc4c(cc32)COC(C)(C)C4)c(=O)n1Cc1ccco1 | inactive: 114%
Cc1c(NC(=O)/C(C#N)=C/c2ccccc2)c(=O)n(-c2ccccc2)n1C | inconclusive: 120%
Cc1ccc(S(=O)(=O)Nn2cnnc2)cc1 | inconclusive: 98.1%
CN(Cc1ccccc1)S(=O)(=O)c1ccc(Cl)c(C(=O)OCC(N)=O)c1 | inconclusive: 92.3%
CC1=C(C)CC(C(=O)NC(C)CCc2ccccc2)C(C(=O)O)C1 (centres undefined) | inconclusive: 101%
CCOC(=O)c1nnc(-c2ccccc2)nc1N1CC(C)OC(C)C1 (centres undefined) | inconclusive: 116%
COc1ccccc1N1CCN(S(=O)(=O)CC23CCC(CC2=O)C3(C)C)CC1 (centres undefined) | active: 17.1%
COc1ccc(-c2cc(C(=O)c3c(N)n(C)c(=O)n(C)c3=O)c3ccccc3n2)cc1OC | inconclusive: 89.3%
COC(=O)c1ccc(C23CC4(C2)[C@H](CN(Cc2cccnc2)[C@@H]4c2ccccc2)C3c2ccccc2)cc1 (some centres undefined) | inconclusive: 104%
COC(=O)CC1C(=O)NCCN1C(=S)Nc1ccc(F)cc1 (centres undefined) | inconclusive: 127%
COC(=O)[C@@H]1C[C@@]2(O)[C@@H](O)[C@@H](O)[C@@H](O)C[C@H]2N1Cc1cc(OC)cc(OC)c1 | inconclusive: 70.9%
COc1ccccc1-c1c(C)nn2c(N3CCN(c4ccccc4OC)CC3)cc(C)nc12 | inactive: 104%
CCOC(=O)COc1cccc2c(=O)n(CC(=O)N3CCCCC3)ccc12 | inconclusive: 94.5%
NC(=O)C(C(=O)/C=C/c1ccc(Cl)cc1)=C1SCCS1 | inconclusive: 98.3%
COc1ccc(CNc2nc3nc(C)c(Cl)c(=O)n3[nH]2)cc1 | inconclusive: 254%
O=C(c1cc2cc(Br)ccc2s1)N1CCOCC1 | inconclusive: 98.8%
O=C(O)CCC1(c2ccccc2)NC(=O)NC1=O (centres undefined) | inconclusive: 101%
CCCCN=C1NC(=O)C(CC(=O)NCCc2ccc(OC)cc2)S1 (centres undefined) | inactive: 98.8%
O=C(c1ccc(F)cc1)N1CCCC(C(=O)N2CCc3ccccc3C2)C1 (centres undefined) | inconclusive: 117%
Cc1onc(-c2c(Cl)cccc2Cl)c1-c1nc2cc(Cl)ccc2c(=O)o1 | inconclusive: 87.1%
CC(C)NCC(=O)Nc1c2c(nc3ccccc13)CCC2 | inconclusive: 102%
O=C(Cn1c(O)c(N=NC(=O)c2ccncc2)c2ccccc21)Nc1ccccc1 | inconclusive: 85.5%

SMILES | binding response (% of control)
NC(=O)CC(NC(=O)c1ccccc1)c1ccc(NCCc2ccc(Cl)cc2)c([N+](=O)[O-])c1 (centres undefined) | inconclusive: 99.1%
CC(C)c1ccc(NC(=S)NNc2ccc(Cl)c(C(=O)O)c2)cc1 | inconclusive: 89.7%
CSc1nc2nc3c(cc2c(=O)n1-c1ccc(C)cc1)COC(C)(C)C3 | inconclusive: 119%
COc1ccccc1CNC(=O)COC(=O)Cc1c(F)cccc1Cl | inconclusive: 94.6%
Cc1ccccc1CN1CCN(C(=O)c2cccc(F)c2)CC1 | inactive: 105%
N#Cc1c(F)cccc1N1CCC(C#N)CC1 | inconclusive: 119%
CC(=O)Nc1ccc(NC(C)=O)c(NC2OCC(O)C(O)C2O)c1 (centres undefined) | inconclusive: 129%
CC1(C(=O)N2CC3(CC(c4cccc(NC(=O)COc5ccc(Cl)cc5)c4)=NO3)C[C@@H]2C(N)=O)CC1 (some centres undefined) | inconclusive: 101%
CC1CCN(CCCNC(=O)c2ccc3c(Cl)c4c(nc3c2)CCCC4)CC1 | inconclusive: 130%
COc1c(Br)cc([N+](=O)[O-])c(OC)c1C(=O)NC(=O)Nc1c(Cl)cccc1Cl | inconclusive: 58.6%
O=C(NNC(=O)c1cc(-c2cccnc2)nc2ccccc12)Nc1ccc(Cl)cc1 | inconclusive: 10.9%
CNC(=O)NC(=O)Cn1cnc2sc(-c3ccccc3)cc2c1=O | inconclusive: 306%
COc1cc(C(=S)N2CCOCC2)cc(OC)c1OC | inconclusive: 90.1%
N/C(=N\OC(=O)/C=C/c1ccccc1)c1ccccn1 | inconclusive: 120%
CCCN1C(=O)/C(=C/c2c(N3CCNC(=O)C3CC(=O)OC)nc3c(C)cccn3c2=O)SC1=S (centres undefined) | inconclusive: 80.7%
CSc1nnc(CCCCCNC(=O)OC(C)(C)C)o1 | inconclusive: 66.1%
CCCN1CCC(=O)N([C@H](CSc2ccc(OC)cc2)c2ccccc2)CC1 | inconclusive: 119%
Cc1nn(Cc2ccc([N+](=O)[O-])cc2)c(=O)n1-c1cccc(Cl)c1 | inconclusive: 79.5%
CCOc1ccc(CC(=O)N2CCN=C2SC)cc1 | inconclusive: 77.1%
Cn1c(=O)n(C)c2cc(NC(=O)c3ccccc3[N+](=O)[O-])c(Br)cc21 | inconclusive: 89%
CNS(=O)(=O)c1cccc(C(=O)OCC(=O)c2c(N)n(C)c(=O)n(C)c2=O)c1 | inconclusive: -32%
CC1CCCN(CCCCOc2cccc(Br)c2)C1 (centres undefined) | inactive: 99.4%

Single entries from the entries so far.
CSc1nnc(CCCCCNC(=O)OC(C)(C)C)o1 | binding response (% of control): inconclusive: 66.1%
COc1ccccc1CNC(=O)COC(=O)Cc1c(F)cccc1Cl | binding response (% of control): inconclusive: 94.6%
